This series can be described thus: general procedure: Fmoc solid-phase peptide synthesis; CTC resin; HBTu/HoBt/DIEA. Conditions: whole synthesis.

Strings that start with PEPTIDE1 are HELM notation: dots part the residues, brackets hold end groups and non-standard residues.

Turning to PEPTIDE1{K.W.G.G.G.R.Y}$$$$V2.0, the crude mass turned out to be 70.8 g. Besides, under “scale of the general procedure 70 g resin”, the crude yield was found to be 97.0%.

These data come from US11597748B2 (CAREGEN CO., LTD., priority 2017, dated 2023).
